{"source": "patent US20090050143A1", "about": "“MEDICINAL FORMULATION CONTAINER WITH A TREATED METAL SURFACE” (priority 2006, published 2009)"}
{"assay": "Surface chemical composition measurement (XPS) of aluminum oxide powder after exposure to drug solution", "assay_type": "physicochemical", "settings": "percentage of aluminum oxide powder remaining chemically treated after exposure to drug solution", "units": {"% AO treated-final": "%"}}
{"smiles": "O=P(O)(O)CCCCCCCCCCCC(F)(F)C(F)(F)C(F)(F)C(F)(F)F", "note": "[A1, n-C4F9—(CH2)11—PO3H2]", "% AO treated-final": 100}
{"smiles": "CC(C)CCCC(C)CCCC(C)CCCC(C)CCP(=O)(O)O", "note": "(stereo not drawn) [A2, 1-phosphono-3,7,11,15-tetramethylhexadecane]", "% AO treated-final": 100}
{"smiles": "CCCCCCCCCCCCCCCCP(=O)(O)O", "note": "[A3, 1-phosphonohexadecane]", "% AO treated-final": 100}
{"smiles": "O=C(O)CCCCCCCCCCC(F)(F)C(F)(F)C(F)(F)C(F)(F)F", "note": "[A4, n-C4F9—(CH2)10—COOH]", "% AO treated-final": 100}
{"smiles": "CC(C)CCCC(C)CCCC(C)CCCC(C)CCC(=O)O", "note": "(stereo not drawn) [A5, Phytanyl carboxylic acid]", "% AO treated-final": 100}
{"smiles": "O=C(O)C(F)(F)C(F)(F)C(F)(F)F", "note": "[FC-23, perfluorobutyric acid]", "% AO treated-final": 100}
